Values from PubChem BioAssay AID743121 (NCATS, 2013).
The whole screen tested about 26,000 reagents; below is a part drawn at random. 167 of them (0.63%) were called active. 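Calls are per gene from RSA p-values that are not deposited; an individual active-marked siRNA can sensitise only weakly.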 Not all columns of the deposit are shown. Reagent sequences are not shown.

Test: 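Genes whose silencing strengthens cell killing by camptothecin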 (primary screen)
System: MDA-MB-231 cells, a human breast cancer line
Reagent: single siRNA against human genes, 20 nM siRNA (0.8 pmol per well)
Time to read-out: 120 h (drug added 48 h after transfection, read 72 h later)
Conditions: camptothecin 20 nM (about EC30) for 72 h; vehicle 0.1% DMSO in parallel plates
Read-out: 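CellTiter-Glo ATP signal, scaled to control siRNA as percent viability; sensitisation given as log2 of untreated divided by camptothecin-treated viability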
Scale: log2 vehicle/camptothecin viability: higher = stronger sensitisation to camptothecin
Hit rule: 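Active genes have an RSA gene-level p-value below 0.001, computed from the ratios of their separate siRNAs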

GPRASP2 [SID164562218]: log2 vehicle/camptothecin viability = -0.0766; Outcome = inactive
GPRASP2 [SID164562219]: log2 vehicle/camptothecin viability = 0.428; Outcome = inactive
GPRASP2 [SID164562221]: log2 vehicle/camptothecin viability = -0.14; Outcome = inactive
GPRASP2 [SID164562223]: log2 vehicle/camptothecin viability = -0.184; Outcome = inactive
RGS4 [SID164385282]: log2 vehicle/camptothecin viability = 0.237; Outcome = inactive
RGS4 [SID164385289]: log2 vehicle/camptothecin viability = 0.319; Outcome = inactive
RGS4 [SID164385290]: log2 vehicle/camptothecin viability = -0.453; Outcome = inactive
BIRC7 [SID164531671]: log2 vehicle/camptothecin viability = 0.183; Outcome = inactive
BIRC7 [SID164531672]: log2 vehicle/camptothecin viability = -0.799; Outcome = inactive
BIRC7 [SID164531673]: log2 vehicle/camptothecin viability = -0.388; Outcome = inactive
BIRC7 [SID164531674]: log2 vehicle/camptothecin viability = -0.409; Outcome = inactive
ASB3 [SID164472119]: log2 vehicle/camptothecin viability = 0.368; Outcome = inactive
ASB3 [SID164472120]: log2 vehicle/camptothecin viability = -0.105; Outcome = inactive
ASB3 [SID164472122]: log2 vehicle/camptothecin viability = 0.265; Outcome = inactive
ASB3 [SID164472123]: log2 vehicle/camptothecin viability = -0.235; Outcome = inactive

In a second layout: results already given.
target	PubChem SID	log2 vehicle/camptothecin viability	Outcome
ASB3	SID164472119	0.368	inactive
ASB3	SID164472120	-0.105	inactive
